{"source": "PubChem BioAssay AID1159508 (Drosophila RNAi Screening Center, 2015)", "assay": "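How silencing genes for RNA-binding proteins changes cellular ATP without other treatment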", "cells": "Drosophila S2R+ cells", "knock-down reagent": "long dsRNA against Drosophila genes", "duration": "5 days", "measurement": "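Luminescent ATP signal as a proxy for cell fitness after 5 days of RNAi, given as a z-score in each replicate and averaged over replicates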", "reading the numbers": "mean ATP z-score: higher = more total ATP luminescence", "active means": "In these data the active calls have mean ATP z-score at about -2 or lower, or at about 2 or higher", "meaning of the calls": "active = strong ATP change (up or down); inactive = no strong ATP change", "note": "The deposit covers 812 reagents; below is an unselected part. 18 of all reagents (2.2%) count as active. 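Calls include both increased and decreased ATP; roughly one in four reagents has no third replicate value.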 A number with no mark means an inactive call. Reagents against one gene are numbered here. Not all columns of the deposit are shown. Reagent sequences are not shown. The record does not give: the amount of reagent."}
{"Gene":"ash1 (GeneID 40133)","reagent no.":1,"mean ATP z-score":-0.559}
{"Gene":"ash1 (GeneID 40133)","reagent no.":2,"mean ATP z-score":0.239}
{"Gene":"Fmr1 (GeneID 37528)","reagent no.":1,"mean ATP z-score":-0.269}
{"Gene":"Fmr1 (GeneID 37528)","reagent no.":2,"mean ATP z-score":0.00232}
{"Gene":"Srp9 (GeneID 38883)","reagent no.":1,"mean ATP z-score":-0.106}
{"Gene":"Srp9 (GeneID 38883)","reagent no.":2,"mean ATP z-score":-0.267}
{"Gene":"eRF1 (GeneID 40240)","reagent no.":1,"mean ATP z-score":1.56}
{"Gene":"eRF1 (GeneID 40240)","reagent no.":2,"mean ATP z-score":0.192}

2 consecutive entries already listed, for reference:
{"Gene":"Fmr1 (GeneID 37528)","reagent no.":2,"mean ATP z-score":0.00232}
{"Gene":"Srp9 (GeneID 38883)","reagent no.":1,"mean ATP z-score":-0.106}

The listing continues:
{"Gene":"CG4866 (GeneID 36976)","reagent no.":1,"mean ATP z-score":-0.223}
{"Gene":"CG4866 (GeneID 36976)","reagent no.":2,"mean ATP z-score":1.24}
{"Gene":"sm (GeneID 37254)","reagent no.":1,"mean ATP z-score":-0.617}
{"Gene":"sm (GeneID 37254)","reagent no.":2,"mean ATP z-score":1.32}
{"Gene":"Srp68 (GeneID 39028)","reagent no.":1,"mean ATP z-score":"3.87 (active)"}
{"Gene":"Srp68 (GeneID 39028)","reagent no.":2,"mean ATP z-score":-0.00714}
